Structures were worked out from names or drawings and are uncertain.
Biological target: XIAP BIR3 domain (Homo sapiens, UniProt P98170)
Test: Fluorescence polarization inhibition (competition) assay
Format: binding
Settings: XIAP BIR3 50 nM, fluorescent probe 4 2 nM

By UniProt entry, the sequences of proteins in these tests, tags left out. Residues count along the entry.
UniProt P98170, 252-356 limits assumed: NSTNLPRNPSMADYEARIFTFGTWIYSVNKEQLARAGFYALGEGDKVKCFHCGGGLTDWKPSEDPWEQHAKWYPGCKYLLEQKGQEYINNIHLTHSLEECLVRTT

SMILES | EC50 [nM]
CN[C@@H](C)C(=O)N[C@H](C(=O)N1CCC[C@H]1C(=O)NC(Cc1ccccc1)P(=O)(O)Oc1ccccc1O)C1CCCCC1 (some centres unmarked) | 520
CN[C@@H](C)C(=O)N[C@H](C(=O)N1CCC[C@H]1C(=O)NC(Cc1ccccc1)P(=O)(O)Oc1ccccc1O)C(C)C (some centres unmarked) | 430
